The source of these data is PubChem BioAssay AID330 (DTP/NCI, 2004).

The list shows only some results of the screen, not a fair sample: it is rich in T/C values a quarter to a half above the control, in often repeated tests (any T/C) and in doses without a T/C. Further doses and runs are listed elsewhere. T/C: endpoint of the treated group in % of that of the vehicle group. Some doses have a count of surviving animals in place of a T/C: the source holds a T/C of zero for them, seemingly a mark for toxic or unscored doses. Some survivor counts are full or nearly so, which does not show that the dose was tolerated: survival well below the control is almost never listed, so the zero probably covers shortened survival too. Counts of survivors are from the toxicity check (mostly the fifth day) where no day follows; animals may have died later. Schedule codes are those of the source, read here as Q, the interval in days (D) or hours (H), X, the number of doses. Some doses were run more than once; their values stand side by side, smallest first. For survival time, this PubChem deposit counts one and a half times the control or more as active, and values a quarter to a half above the control carry no call in these data; other NCI protocols may use other cut-offs. Counts like (3×) count equal records among those shown. Some T/C values carry the count of animals alive at the toxicity check (mostly the fifth day); without a count, all were alive then.

In this assay the test system is P388 leukemia ip, CD2F1 mice, survival T/C. The assay is described as follows: NCI In Vivo Anticancer Drug Screen. Data for tumor model P388 Leukemia (intraperitoneal) in CD2F1 (CDF1) mice. The conditions noted are these: T/C endpoint: median survival time, higher T/C = longer survival.
[1] abbreviates: dose: 100.0 mg/kg/injection, schedule: Q04DX003 (ip), vehicle: saline.
Where [2] appears, read: dose: 200.0 mg/kg/injection, schedule: Q04DX003 (ip), vehicle: saline.
[3] abbreviates: dose: 400.0 mg/kg/injection, schedule: Q04DX003 (ip), vehicle: saline.
[4] abbreviates: dose: 200.0 mg/kg/injection, schedule: Q01DX005 (ip), vehicle: Klucel (hydroxypropylcellulose) (HPC).
The mark [5] stands for this setting: dose: 100.0 mg/kg/injection, schedule: Q01DX005 (ip), vehicle: Klucel (hydroxypropylcellulose) (HPC).

As to `CC1CC(Cc2ccccc2)C(=O)CC(C)(C)CC(=O)O1` (stereo unspecified), the T/C by setting is: under setting [1], 100, 101, 103, 104 % of control; under setting [2], 96, 100, 101 % of control (2×); under setting [3], 97, 105, 106, 125 % of control.
With `CN(N=O)C(=O)NCC1OC(OC2(CO)OC(CNC(=O)N(C)N=O)C(O)C2O)C(O)C(O)C1O` (stereo unspecified), the T/C by setting is: (dose: 100.0 mg/kg/injection, schedule: Q01DX009 (ip), vehicle: saline) 130 % of control; (dose: 200.0 mg/kg/injection, schedule: Q01DX009 (ip), vehicle: saline) 137 and 140 % of control.
As to `CCCCCCCC(=O)N/N=C(\CO)[C@]1(O)Cc2c(O)c3c(c(O)c2[C@@H](OC2CC(N)C(O)C(C)O2)C1)C(=O)c1c(OC)cccc1C3=O` (stereo partly specified), the T/C was 135 % of control (dose: 20.0 mg/kg/injection, schedule: Q04DX003 (ip), vehicle: water); 133 % of control (dose: 40.0 mg/kg/injection, schedule: Q04DX003 (ip), vehicle: water, evaluated on day 30); 138 % of control (dose: 40.0 mg/kg/injection, schedule: Q04DX003 (ip), vehicle: water, evaluated on day 45); 142 % of control (dose: 120.0 mg/kg/injection, schedule: Q04DX003 (ip), vehicle: water).
Regarding `O=C1c2ccccc2C(=O)C1C(=Nc1ccccc1Cl)c1ccccc1`, the survivor count was 5 of 5 (dose: 50.0 mg/kg/injection, schedule: Q01DX005 (ip), vehicle: Klucel (hydroxypropylcellulose) (HPC)) and 5 of 5 under setting [4].
Take `O=CCC(O)C(O)C(O)CO` (stereo unspecified): the T/C by setting is: (dose: 1200.0 mg/kg/injection, schedule: Q01DX009 (ip), vehicle: saline) 125 and 134 % of control; (dose: 2400.0 mg/kg/injection, schedule: Q01DX009 (ip), vehicle: saline) 137 % of control.
Turning to `CCCC(O)C(C)[N+](=O)[O-]` (stereo unspecified), the survivor count under setting [3] is 3 of 6.
As for `Nc1nnn(N)n1`, the survivor count under setting [3] is given as 4 of 6.
`CC12CCC(=O)C1C=CC2=O` (stereo unspecified): for the setting “dose: 400.0 mg/kg/injection, schedule: Q04DX003 (ip), vehicle: saline + Tween-80 + alcohol”, the survivor count is reported as 3 of 6.
Consider `O=C(c1ccccc1)C1C(c2ccccc2)C2(CCCCC2=O)C(c2ccccc2)CC1(O)c1ccccc1` (stereo unspecified), for which the survivor count (dose: 6.25 mg/kg/injection, schedule: Q01DX001 (ip), vehicle: Klucel (hydroxypropylcellulose) (HPC)) is on record as 6 of 6 and the survivor count (dose: 12.5 mg/kg/injection, schedule: Q01DX001 (ip), vehicle: Klucel (hydroxypropylcellulose) (HPC)) is reported as 6 of 6.
In the case of `COCC1(COC)CCN(C2CC(O[C@H]3C[C@](O)(C(C)=O)Cc4c(O)c5c(c(O)c43)C(=O)c3c(OC)cccc3C5=O)OC(C)C2O)CC1` (stereo partly specified), the T/C (dose: 25.0 mg/kg/injection, schedule: Q04DX003 (ip), vehicle: water) was 148 % of control.
Turning to `CC(N)(CSCc1ccccc1)C(=O)O` (stereo unspecified), the survivor count (dose: 200.0 mg/kg/injection, schedule: Q01DX009 (ip), vehicle: Klucel (hydroxypropylcellulose) (HPC)) is recorded as 3 of 6.
As for `CCCCCCCCCCCCCCCC[N+](C)(C)CCNC(=O)C1CSC(C)(C)N1C=O` (stereo unspecified), the survivor count (dose: 50.0 mg/kg/injection, schedule: Q01DX009 (ip), vehicle: saline) is on record as 5 of 6.
As to `O=NN(CCCl)C(=O)NC1CCCCC1`, the T/C (dose: 2.0 mg/kg/injection, schedule: Q01DX009 (ip), vehicle: saline with Tween-80) was 127 % of control; the T/C (dose: 8.0 mg/kg/injection, schedule: Q01DX001 (ip), vehicle: saline + alcohol, evaluated on day 5) is 126 % of control; the T/C (dose: 8.0 mg/kg/injection, schedule: Q01DX001 (ip), vehicle: saline + alcohol, evaluated on day 45) is 127 % of control; the T/C (dose: 12.0 mg/kg/injection, schedule: Q04DX003 (ip), vehicle: carboxymethylcellulose (CMC)) is 125 % of control; the T/C (dose: 16.0 mg/kg/injection, schedule: Q01DX001 (ip), vehicle: saline + alcohol, evaluated on day 5) was 131 % of control; the T/C (dose: 16.0 mg/kg/injection, schedule: Q01DX001 (ip), vehicle: saline + alcohol, evaluated on day 45) is 136 % of control. The T/C (dose: 32.0 mg/kg/injection, schedule: Q01DX001 (ip), vehicle: saline + alcohol, evaluated on day 5) was 147 % of control; the T/C (dose: 32.0 mg/kg/injection, schedule: Q01DX001 (ip), vehicle: saline + alcohol, evaluated on day 45) was 145 % of control; the T/C (dose: 32.0 mg/kg/injection, schedule: Q01DX009 (ip), vehicle: saline with Tween-80) was 136 % of control. For the setting “dose: 64.0 mg/kg/injection, schedule: Q01DX009 (ip), vehicle: saline with Tween-80”, the survivor count is 5 of 6.
Regarding `CCc1ccc(-n2c(C)nc3[nH]cc(C)c3c2=N)cc1`, the survivor count under setting [5] is given as 1 of 6 and the survivor count under setting [4] is 0 of 6.
For the compound `Nc1nc2c(C(=O)N3CCCC3)nnn2c2ccccc12`, where the note is “dose: 200.0 mg/kg/injection, schedule: Q01DX009 (ip), vehicle: saline with Tween-80”, the survivor count is listed as 0 of 6.
For the compound `O=C1NC(=O)/C(=C\c2ccco2)S1`, the survivor count (dose: 50.0 mg/kg/injection, schedule: Q01DX009 (ip), vehicle: Klucel (hydroxypropylcellulose) (HPC)) was 0 of 6.
As to `NC(=O)C(Cc1ccccc1)NC(=O)C(CSCc1ccccc1)NC(=O)OCc1ccccc1` (stereo unspecified), the survivor count is, setting by setting: under setting [5], 6 of 6; under setting [4], 6 of 6.
Regarding `O=C(O)C(=O)c1ccc(-c2ccccc2)cc1`, the survivor count under setting [2] was 5 of 6.
Take `O=C(Nc1ccc(C2=NCCCN2)cc1)Nc1cccc(C(=O)Nc2ccc(C3=NCCCN3)cc2)c1`: the T/C is 131 % of control (dose: 6.0 mg/kg/injection, schedule: Q01DX009 (ip), vehicle: saline with Tween-80) and 140 % of control (dose: 12.5 mg/kg/injection, schedule: Q01DX009 (ip), vehicle: saline with Tween-80). Also, the survivor count (dose: 37.5 mg/kg/injection, schedule: Q01DX009 (ip), vehicle: saline with Tween-80) is 6 of 6; the survivor count (dose: 100.0 mg/kg/injection, schedule: Q04DX003 (ip), vehicle: saline with Tween-80) was 3 of 6; the survivor count (dose: 200.0 mg/kg/injection, schedule: Q04DX003 (ip), vehicle: saline with Tween-80) was 1 of 6; the survivor count (dose: 400.0 mg/kg/injection, schedule: Q04DX003 (ip), vehicle: saline with Tween-80) is 0 of 6.
On to `O=[N+]([O-])C(c1ccccc1)C(c1ccccc1)[N+](=O)[O-]` (stereo unspecified), for which the T/C (dose: 100.0 mg/kg/injection, schedule: Q01DX005 (ip), vehicle: saline with Tween-80) was 128 % of control [5 of 6 alive]. Besides, the survivor count (dose: 200.0 mg/kg/injection, schedule: Q01DX005 (ip), vehicle: saline with Tween-80) was 3 of 6 and 4 of 6.
As to `CC(C)[C@]12O[C@H]1[C@@H]1O[C@]13[C@]1(O[C@H]1C[C@H]1C4=C(C(=O)OC4)[C@@H](O)C[C@@]13C)[C@@H]2O`, the T/C by setting is: (dose: 0.06 mg/kg/injection, schedule: Q01DX009 (ip), vehicle: saline + alcohol) 128 % of control; (dose: 0.13 mg/kg/injection, schedule: Q01DX009 (ip), vehicle: saline + alcohol) 130 and 136 % of control; (dose: 0.2 mg/kg/injection, schedule: Q01DX009 (ip), vehicle: saline + alcohol) 134 % of control; (dose: 0.25 mg/kg/injection, schedule: Q01DX005 (ip), vehicle: saline + alcohol) 131 % of control. In addition, the survivor count (dose: 0.4 mg/kg/injection, schedule: Q01DX009 (ip), vehicle: saline + alcohol) is on record as 5 of 6; the survivor count (dose: 0.5 mg/kg/injection, schedule: Q01DX005 (ip), vehicle: saline + alcohol) is 6 of 6; the survivor count (dose: 0.5 mg/kg/injection, schedule: Q01DX009 (ip), vehicle: saline + alcohol) was 4 of 10 and 5 of 10; the survivor count (dose: 0.8 mg/kg/injection, schedule: Q01DX009 (ip), vehicle: saline + alcohol) is 2 of 6; the survivor count (dose: 1.0 mg/kg/injection, schedule: Q01DX009 (ip), vehicle: saline + alcohol) is 0 of 10; the survivor count (dose: 1.6 mg/kg/injection, schedule: Q01DX009 (ip), vehicle: saline + alcohol) is recorded as 0 of 6.
`CN(C)CCCC[N+](C)(C)Cc1ccc(C[N+](C)(C)CCCC[N+](C)(C)Cc2ccc(CCl)cc2)cc1`: the survivor count (dose: 25.0 mg/kg/injection, schedule: Q04DX003 (ip), vehicle: saline) was 3 of 6; the survivor count (dose: 50.0 mg/kg/injection, schedule: Q04DX003 (ip), vehicle: saline) was 0 of 6 and 3 of 6; the survivor count under setting [1] is given as 0 of 6; the survivor count under setting [2] is on record as 0 of 6; the survivor count under setting [3] is 0 of 6.
